Values of other authors, collected in patent US11865207B2, “Topical pharmaceutical composition for treatment of anal fissures and hemorrhoids” (Ferring B.V., priority 2018, dated 2024).
At least one structure is not confirmed: it was looked up by name or label, or the drawing left a doubt.

Test system: anal fissures
Conditions: topical 0.2% nifedipine

Q: With `COC(=O)C1=C(C)NC(C)=C(C(=O)OC)C1c1ccccc1[N+](=O)[O-]` [nifedipine] as the molecule, how does the healing rate read?
A: The healing rate was 80% to 90.
